In this experiment the test system is BDF1 mice, Lewis lung carcinoma iv, survival T/C. As to the kind of experiment: NCI In Vivo Anticancer Drug Screen. Data for tumor model Lewis Lung Carcinoma (intravenous) in B6D2F1 (BDF1) mice. To be noted: schedule: Q01DX009 (ip), higher T/C = longer survival. As for the experimental part: The antitumor activity of compounds was measured in mice bearing transplantable tumors. Survival or tumor size were measured and the results are expressed as the measurement made in the treated group (T) divided by the measurement made in the vehicle treated control group (C). The tumor model used in this assay is Lewis Lung Carcinoma (intravenous) in B6D2F1 (BDF1) mice

The mark [1] stands for this setting: T/C endpoint: median survival time, dose: 50.0 mg/kg/injection, vehicle: saline with Tween-80.
The mark [2] stands for this setting: T/C endpoint: median survival time, dose: 200.0 mg/kg/injection, vehicle: saline.
Setting [3] is: T/C endpoint: median survival time, dose: 12.5 mg/kg/injection, vehicle: saline with Tween-80.
The mark [4] stands for this setting: T/C endpoint: median survival time, dose: 100.0 mg/kg/injection, vehicle: saline with Tween-80.
Where [5] appears, read: T/C endpoint: median survival time, dose: 100.0 mg/kg/injection, vehicle: saline.

Structures are written as SMILES. The list shows only some results of the screen, not a fair sample: it is rich in T/C values a quarter to a half above the control, in often repeated tests (any T/C) and in doses without a T/C. Other doses and runs of a compound stand elsewhere. T/C gives the treated animals as a percentage of the vehicle group. Some entries give survivors of the animals treated and no T/C: the source holds a T/C of zero for them, seemingly a mark for toxic or unscored doses. Some survivor counts are full or nearly so, which does not show that the dose was tolerated: survival well below the control is almost never listed, so the zero probably covers shortened survival too. Counts of survivors are from the toxicity check (mostly the fifth day) where no day follows; animals may have died later. Schedule codes are those of the source, read here as Q, the interval in days (D) or hours (H), X, the number of doses. Where survival is the endpoint, the PubChem record calls one and a half times the control and up active, and a quarter to a half above the control has no call in these data; cut-offs in other NCI protocols can differ.

In the case of `Cc1cc2c(c3oc(C4(C)OC4C4OC4C)cc(=O)c13)C(=O)c1c(O)c(C3CC(C)(N(C)C)C(O)C(C)O3)cc(C3CC(N(C)C)C(O)C(C)O3)c1C2=O` (stereo not drawn), the T/C (T/C endpoint: median survival time, dose: 0.6 micrograms/kg/injection, vehicle: Klucel (hydroxypropylcellulose) (HPC)) was 134 % of control. The survivor count by setting is: (T/C endpoint: median survival time, dose: 1.2 micrograms/kg/injection, vehicle: Klucel (hydroxypropylcellulose) (HPC)) 10 of 10; (T/C endpoint: median survival time, dose: 2.5 micrograms/kg/injection, vehicle: Klucel (hydroxypropylcellulose) (HPC)) 10 of 10; (T/C endpoint: median survival time, dose: 5.0 micrograms/kg/injection, vehicle: Klucel (hydroxypropylcellulose) (HPC)) 10 of 10; (T/C endpoint: median survival time, dose: 10.0 micrograms/kg/injection, vehicle: Klucel (hydroxypropylcellulose) (HPC)) 10 of 10; (T/C endpoint: median survival time, dose: 20.0 micrograms/kg/injection, vehicle: Klucel (hydroxypropylcellulose) (HPC)) 6 of 10.

On to `Nc1ncnc2c1cnn2Cc1ccc(Cl)cc1`, for which the T/C under setting [1] was 130 % of control. Moreover, the survivor count under setting [2] is listed as 9 of 10.

`Cn1cnc([N+](=O)[O-])c1Sc1nc(N)nc2c1ncn2C1OC(CO)C(O)C1O` (stereo not drawn): the survivor count is listed as 10 of 10 (T/C endpoint: median survival time, dose: 6.25 mg/kg/injection, vehicle: saline with Tween-80); 10 of 10 under setting [3]; 10 of 10 (T/C endpoint: median survival time, dose: 12.5 mg/kg/injection, vehicle: suspension in saline); 10 of 10 (T/C endpoint: median survival time, dose: 25.0 mg/kg/injection, vehicle: saline with Tween-80); 10 of 10 (T/C endpoint: median survival time, dose: 25.0 mg/kg/injection, vehicle: suspension in saline); 10 of 10 (T/C endpoint: median survival time, dose: 50.0 mg/kg/injection, vehicle: suspension in saline).

In the case of `CCCC(=O)O`, the survivor count is 5 of 10 under setting [2] and 0 of 10 (T/C endpoint: median survival time, dose: 400.0 mg/kg/injection, vehicle: saline).

As to `CNC(=O)c1cccc2c(Nc3ccc(NS(C)(=O)=O)cc3OC)c3cccc(C)c3nc12`, the T/C (T/C endpoint: median survival time, dose: 0.78 mg/kg/injection, vehicle: water) was 131 % of control. Also, for the setting “T/C endpoint: median survival time, dose: 6.25 mg/kg/injection, vehicle: water”, the survivor count is 10 of 10.

`CN1C(=O)NC(c2ccc(Cl)cc2)(c2ccc(Cl)cc2)C1=O`: where the note is “T/C endpoint: median survival time, dose: 100.0 mg/kg/injection, vehicle: distilled water + Tween-80”, the T/C was 129 % of control. The survivor count (T/C endpoint: median survival time, dose: 400.0 mg/kg/injection, vehicle: distilled water + Tween-80) is 0 of 10.

In the case of `C1OC1CO[C@@H]1CO[C@H]2[C@@H]1OC[C@H]2OCC1CO1` (stereo partly drawn), the T/C under setting [2] was 146 % of control.

On to `NC(=O)c1ccc(N)nc1`, for which the T/C (T/C endpoint: median survival time, dose: 2.0 mg/kg/injection, vehicle: saline) was 131 % of control. Besides, the survivor count runs as follows: (T/C endpoint: median survival time, dose: 4.0 mg/kg/injection, vehicle: saline) 10 of 10; (T/C endpoint: median survival time, dose: 8.0 mg/kg/injection, vehicle: saline) 10 of 10.

On to `C[n+]1cccc(NC(=O)c2ccc(NC(=O)C34CCC(C(=O)Nc5ccc(C(=O)Nc6ccc[n+](C)c6)cc5)(CC3)CC4)cc2)c1`, for which the survivor count reads like this: (T/C endpoint: median survival time, dose: 20.0 mg/kg/injection, vehicle: saline with Tween-80) 10 of 10; (T/C endpoint: median survival time, dose: 40.0 mg/kg/injection, vehicle: saline with Tween-80) 10 of 10; (T/C endpoint: median survival time, dose: 80.0 mg/kg/injection, vehicle: saline with Tween-80) 6 of 10; (T/C endpoint: median survival time, dose: 160.0 mg/kg/injection, vehicle: saline with Tween-80) 0 of 10.

`CCCCC(=O)OCC(=O)[C@]1(O)Cc2c(O)c3c(c(O)c2[C@@H](OC2CC(NC(=O)C(F)(F)F)C(O)C(C)O2)C1)C(=O)c1c(OC)cccc1C3=O` (stereo partly drawn): the T/C (T/C endpoint: median survival time, dose: 32.0 mg/kg/injection, vehicle: distilled water + Tween-80) is 134 % of control. Further, the survivor count (T/C endpoint: median survival time, dose: 64.0 mg/kg/injection, vehicle: distilled water + Tween-80) was 10 of 10 and the survivor count (T/C endpoint: median survival time, dose: 128.0 mg/kg/injection, vehicle: distilled water + Tween-80) is recorded as 8 of 10.

Turning to `CC[C@](C)(O)C(=O)O[C@H]1C(=O)O[C@@H]2C[C@H]3C(C)=CC(=O)[C@@H](O)[C@]3(C)[C@H]3[C@@]4(O)OC[C@]32[C@@H]1[C@@H](C)[C@H]4O`, the survivor count reads like this: (T/C endpoint: median survival time, dose: 1.0 mg/kg/injection, vehicle: steroid suspending solution) 4 of 10; (T/C endpoint: median survival time, dose: 2.0 mg/kg/injection, vehicle: steroid suspending solution) 0 of 10.

With `Nc1nnc[se]1`, under setting [3], the T/C is 143 % of control. Further, the survivor count is reported as 10 of 10 under setting [1] and 5 of 10 under setting [4].

Take `Nc1cc2[nH]cnc2c(=O)[nH]1`: the survivor count (T/C endpoint: mean survival time, dose: 170.0 mg/kg/injection, vehicle: Klucel (hydroxypropylcellulose) (HPC)) is listed as 10 of 10.

As to `CC(C)NCC(O)COc1cccc2ccccc12` (stereo not drawn), the T/C (T/C endpoint: median survival time, dose: 4.0 mg/kg/injection, vehicle: Klucel (hydroxypropylcellulose) (HPC)) is 127 % of control. The survivor count (T/C endpoint: median survival time, dose: 128.0 mg/kg/injection, vehicle: Klucel (hydroxypropylcellulose) (HPC)) is 2 of 10.

Take `CCC1OCCN1C(C)C` (stereo not drawn): the survivor count under setting [5] was 10 of 10.

`CC(=O)OCC1OC(n2cnc3c(=S)nc[nH]c32)C(OC(C)=O)C1OC(C)=O` (stereo not drawn): the survivor count runs as follows: (T/C endpoint: median survival time, dose: 100.0 mg/kg/injection, vehicle: suspension in saline) 10 of 10; (T/C endpoint: median survival time, dose: 200.0 mg/kg/injection, vehicle: suspension in saline) 10 of 10; (T/C endpoint: median survival time, dose: 400.0 mg/kg/injection, vehicle: suspension in saline) 10 of 10.

Take `OCC(F)(F)C(F)(F)C(F)(F)F`: the survivor count is 10 of 10 (T/C endpoint: median survival time, dose: 75.0 mg/kg/injection, vehicle: saline); 10 of 10 (T/C endpoint: median survival time, dose: 150.0 mg/kg/injection, vehicle: saline); 10 of 10 (T/C endpoint: median survival time, dose: 300.0 mg/kg/injection, vehicle: saline); 10 of 10 (T/C endpoint: median survival time, dose: 600.0 mg/kg/injection, vehicle: saline).

As to `COC(=O)c1[nH]c(=O)[nH]c(=O)c1F`, the survivor count reads like this: under setting [1], 10 of 10; under setting [4], 7 of 10; (T/C endpoint: median survival time, dose: 200.0 mg/kg/injection, vehicle: saline with Tween-80) 9 of 10.

For the molecule `O=C(O)CC(NC(=O)CP(=O)(O)O)C(=O)O.[NH-]C1CCCCC1[NH-].[Pt+2]` (stereo not drawn), the survivor count is, setting by setting: (T/C endpoint: median survival time, dose: 12.5 mg/kg/injection, vehicle: dextrose) 10 of 10; (T/C endpoint: median survival time, dose: 25.0 mg/kg/injection, vehicle: dextrose) 9 of 10; (T/C endpoint: median survival time, dose: 50.0 mg/kg/injection, vehicle: dextrose) 0 of 10; (T/C endpoint: median survival time, dose: 100.0 mg/kg/injection, vehicle: dextrose) 0 of 10.

With `CC(=O)N(C)c1ccc(Nc2cc(C)[nH]c3ccc4ncnc4c23)cc1`, the survivor count under setting [5] is 10 of 10 and the survivor count under setting [2] was 0 of 10.

Regarding `CC1CCC(n2cnc3c(Cl)ncnc32)O1` (stereo not drawn), the survivor count (T/C endpoint: median survival time, dose: 400.0 mg/kg/injection, vehicle: Klucel (hydroxypropylcellulose) (HPC)) is listed as 5 of 10.

For `CC(C)CC(NC(=O)CF)C(=O)O` (stereo not drawn), the survivor count (T/C endpoint: median survival time, dose: 10.0 mg/kg/injection, vehicle: saline) is 3 of 10.
